Among the data in paper PMC7819943, “Rice protein-binding microarrays: a tool to detect cis-acting elements near promoter regions in rice” are binding signal values, retold here.

The list shows a part of the results.

For the assay, the target named is T1, OsSMF1 (Oryza sativa, UniProt Q6ZLB0 1-436).
T1 sequence: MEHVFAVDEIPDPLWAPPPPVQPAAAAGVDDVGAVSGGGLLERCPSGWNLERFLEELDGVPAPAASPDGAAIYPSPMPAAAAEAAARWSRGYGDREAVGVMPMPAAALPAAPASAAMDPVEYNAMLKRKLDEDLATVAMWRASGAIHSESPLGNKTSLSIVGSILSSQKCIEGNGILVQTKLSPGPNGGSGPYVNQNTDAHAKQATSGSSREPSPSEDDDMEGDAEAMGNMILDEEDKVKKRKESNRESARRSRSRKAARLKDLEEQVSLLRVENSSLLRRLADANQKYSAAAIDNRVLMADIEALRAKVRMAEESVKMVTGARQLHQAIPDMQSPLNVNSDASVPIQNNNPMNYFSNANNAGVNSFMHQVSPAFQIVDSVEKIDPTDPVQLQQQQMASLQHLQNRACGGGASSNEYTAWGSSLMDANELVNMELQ
Briefly: protein-binding microarray (RPBM); PBS, 2% BSA, 51.3 ng/ul salmon testes DNA, 50 uM zinc acetate, 200 nM TF, 25 C, 1 h; high values mean tight binding. To be noted: protein: recombinant; tags: N-terminal polyhistidine and DsRed monomer fusion (pET32a); chain copies: 2; label: CyDye5-dUTP incorporated in the synthesized complementary strand; 3' TTTTT single-stranded linker to array surface; dsDNA, one strand shown. The gist of the method:
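Transcription factors, each fused N-terminally to a polyhistidine tag and DsRed, were expressed in E. coli BL21-CodonPlus and purified on Ni–NTA. A custom Agilent array was made double-stranded by primer extension with Cy5-dUTP and blocked with 2% BSA. It was incubated with 200 nM protein in PBS, 2% BSA, salmon testes DNA and 50 µM zinc acetate at 25 °C for 1 h, then washed. The binding signal is per-feature fluorescence intensity (arbitrary units) read on an Axon 4000B scanner.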
Consider “AACCGACAAACCCTAACCCTAGCCACATCAGTCTGGAGTCCGGAGTCACCTAGTGCAG”, for which the binding signal was 3980 fluorescence intensity (a.u.).

Turning to “AATCACGCAAGCCTGATGCATCACATGCTCCAGTTAATCACGGAGTCACCTAGTGCAG”, the binding signal was 3860 fluorescence intensity (a.u.).

Take “GGCATTATGACACGCATCTATTCTGTAATTGATGCTCCTGCGGAGTCACCTAGTGCAG”: the binding signal is 4900 fluorescence intensity (a.u.).

For “CCGCCATATCCGCTCTCCGCGCGTCACCTCGTGTCGCGTCCGGAGTCACCTAGTGCAG”, the binding signal was 4070 fluorescence intensity (a.u.).

On to “GGCAATGCCTCGCACCACGGACCTGGAACGATGGCTTTGGCGGAGTCACCTAGTGCAG”, for which the binding signal was 3470 fluorescence intensity (a.u.).

“CCGCATGTGACCACCGGTGTTGTTGTTGGTCACATCTCTACGGAGTCACCTAGTGCAG”: the binding signal was 3140 fluorescence intensity (a.u.).

As to “GCGGCGCTGCCATGCCAACACGCGGCGCCAGCGACCAGCGCGGAGTCACCTAGTGCAG”, the binding signal is 3840 fluorescence intensity (a.u.).

For “GCATGTCATAATCTTGAGATAACGGTTATGCAACTGTTTACGGAGTCACCTAGTGCAG”, the binding signal is 22000 fluorescence intensity (a.u.).

Take “GTACATGCGTGTGCCACTTCCTCTATTACGAATGCGTGCACGGAGTCACCTAGTGCAG”: the binding signal is 21400 fluorescence intensity (a.u.).

On to “TTCTATCCATAGGATTTTAGGTGATATGGCACTCAAATCGCGGAGTCACCTAGTGCAG”, for which the binding signal was 4620 fluorescence intensity (a.u.).

For the sequence “CAGCAGCGCAATGCCTCGCGCTGCTCTCCGTCGCCGCCGCCGGAGTCACCTAGTGCAG”, the binding signal is 7600 fluorescence intensity (a.u.).

With “CAAACGCTCTCAAGCCGCCAAGTGGCGCTCTAATAAAATACGGAGTCACCTAGTGCAG”, the binding signal is 3580 fluorescence intensity (a.u.).

Take “TAGCCGCCTCATCTCGCCCATTCGCTTCCCCGTCATAAAGCGGAGTCACCTAGTGCAG”: the binding signal was 3190 fluorescence intensity (a.u.).

For the sequence “GTAAGAGGGAGGTAAAATAGACTCACGTGAGGAGTCAACACGGAGTCACCTAGTGCAG”, the binding signal is 3510 fluorescence intensity (a.u.).

“GAACCCACCCCGCGTCCCGGACCACGTCCTGCTCGCCTGGCGGAGTCACCTAGTGCAG”: the binding signal was 3390 fluorescence intensity (a.u.).

Regarding “TCGTGTGTGCGCAACTGTTTATATGCACGTGTAGCTGCTTCGGAGTCACCTAGTGCAG”, the binding signal was 3420 fluorescence intensity (a.u.).

Regarding “TAGGTAGGTAACCGATCGCAACGTTTCATGACGGAGACAGCGGAGTCACCTAGTGCAG”, the binding signal is 3380 fluorescence intensity (a.u.).

In the case of “CAAACCAACTTTATATTCTTGTCTAACATCGGTTTAGAAACGGAGTCACCTAGTGCAG”, the binding signal was 5060 fluorescence intensity (a.u.).

“GGCACCACCGTCACCACGTCACGGGGCAAATCGGATGCCTCGGAGTCACCTAGTGCAG”: the binding signal was 13600 fluorescence intensity (a.u.).

Take “TTCTAACTTCACCTAGCCGTGTTGTGCAGCTTGAACTACCCGGAGTCACCTAGTGCAG”: the binding signal was 18600 fluorescence intensity (a.u.).

For the sequence “TTTATTTTGGACCAAATAGTATATATTATATCTTATATTACGGAGTCACCTAGTGCAG”, the binding signal was 6700 fluorescence intensity (a.u.).

For “AAGCGTGGCGACGACAGGTGATGAGGGAACTCATTGAACCCGGAGTCACCTAGTGCAG”, the binding signal was 7990 fluorescence intensity (a.u.).

As to “CCAGCCGGCGAGGAAGACGGCGAGGGAGGCGGCCATGACGCGGAGTCACCTAGTGCAG”, the binding signal is 3330 fluorescence intensity (a.u.).

As for “CTGTGAGAGCGAACGTGGTATGATGTAATCGACTTTCTTGCGGAGTCACCTAGTGCAG”, the binding signal is 3650 fluorescence intensity (a.u.).

Consider “CTTACATAAGGGGAATATAATATATACTTACTACTTGATGCGGAGTCACCTAGTGCAG”, for which the binding signal was 3240 fluorescence intensity (a.u.).

With “CTGAGAGGAGGAGGTGGCGGCGGAGCGGCTTGTGCTCGACCGGAGTCACCTAGTGCAG”, the binding signal was 17400 fluorescence intensity (a.u.).

For the sequence “GTGGTCACCTCTGGACAGCATGAAGCGTACAGGCTACAGCCGGAGTCACCTAGTGCAG”, the binding signal is 7410 fluorescence intensity (a.u.).

Consider “ATCGGGCTTAGCGTCTCCACTCGTGTTCGTGTTGGTTCCTCGGAGTCACCTAGTGCAG”, for which the binding signal was 3360 fluorescence intensity (a.u.).

With “CATATTCCAGACTTCCAGTCATGTGTCCAGTCCAATTGACCGGAGTCACCTAGTGCAG”, the binding signal is 3380 fluorescence intensity (a.u.).

Regarding “TCGAATTCCGATGGCGCCCAGCATACACATCAGCCACCAGCGGAGTCACCTAGTGCAG”, the binding signal is 6440 fluorescence intensity (a.u.).

Turning to “GTGACATAGTTTTGCGGAGAGAGTATCTGGTTTTCCTGTTCGGAGTCACCTAGTGCAG”, the binding signal is 26600 fluorescence intensity (a.u.).

“CCCGCCACCAAGCACCTATAGTCTCCCGTTGCTGTCAAAGCGGAGTCACCTAGTGCAG”: the binding signal was 4210 fluorescence intensity (a.u.).

As to “CATGCAAGGGGTGACGTCATGACGAGATACGGAGGGTGGGCGGAGTCACCTAGTGCAG”, the binding signal is 16100 fluorescence intensity (a.u.).

Turning to “CCCAGCCCGCTCCACGTCGCCGCGCGCTTCCCCTCCTACGCGGAGTCACCTAGTGCAG”, the binding signal is 5540 fluorescence intensity (a.u.).

For the sequence “TTCCTCGACAAGATTTTCATGTGGCGTGGAGCGACAGAGACGGAGTCACCTAGTGCAG”, the binding signal is 4080 fluorescence intensity (a.u.).

Regarding “TCTCCATAAGAGCACCCACCAACTCAGCCTCTCCTCCCATCGGAGTCACCTAGTGCAG”, the binding signal was 3340 fluorescence intensity (a.u.).

With “GGCGATTAGCCAATTGCAGCCTTGGCACCCACGGTAATTCCGGAGTCACCTAGTGCAG”, the binding signal is 3690 fluorescence intensity (a.u.).

Turning to “GACTAGAGCATACTGTCATAAGGTATTGTGTTTGCTTGTCCGGAGTCACCTAGTGCAG”, the binding signal was 4090 fluorescence intensity (a.u.).

For “GGCCCTCTCAAAATTCTCAATCTGCCACCGCATCAACGAGCGGAGTCACCTAGTGCAG”, the binding signal is 3140 fluorescence intensity (a.u.).

As to “AATTCTTTCTTGCAAAGAACCCATTTCTGTACTAAGAGTACGGAGTCACCTAGTGCAG”, the binding signal was 27600 fluorescence intensity (a.u.).

Consider “GACGGAGGGAGTACAGGTTATTTCAGGTTACAAAAGTTTGCGGAGTCACCTAGTGCAG”, for which the binding signal is 3270 fluorescence intensity (a.u.).

In the case of “CGGTCCCACCTGTCATACACACATTACGTCTTGGAGTCAGCGGAGTCACCTAGTGCAG”, the binding signal is 4220 fluorescence intensity (a.u.).
